Data taken from article PMC7948961, “Proteomic identification and validation of novel interactions of the putative tumor suppressor PRELP with membrane proteins including IGFI-R and p75NTR” (The Journal of Biological Chemistry, 2021).
No constants are given. Whether binding was seen depends on the method and setting. In cells and extracts the contact can be indirect. These calls come from enrichment with a bait or labelling near it, and not all partners need be listed. Tags and fused reporters may be left off the sequences shown.

Molecular target: T1, Human PRELP (proline and arginine-rich end leucine-rich repeat protein) with a C-terminal FLAG tag, overexpressed in Expi293 cells (human) (UniProt P51888)
T1 sequence: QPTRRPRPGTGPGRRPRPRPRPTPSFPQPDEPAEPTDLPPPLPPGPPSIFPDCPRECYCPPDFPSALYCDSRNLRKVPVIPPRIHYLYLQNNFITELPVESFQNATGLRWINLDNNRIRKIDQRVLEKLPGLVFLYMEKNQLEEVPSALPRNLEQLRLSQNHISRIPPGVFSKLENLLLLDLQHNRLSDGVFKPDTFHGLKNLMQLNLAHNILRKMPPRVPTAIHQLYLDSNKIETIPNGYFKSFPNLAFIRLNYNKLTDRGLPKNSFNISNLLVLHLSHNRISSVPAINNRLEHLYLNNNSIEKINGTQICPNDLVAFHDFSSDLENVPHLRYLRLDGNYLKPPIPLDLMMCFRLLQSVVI
Assay: affinity purification with mass spectrometry; CoIP-MS: DDM extract (0.1% DDM, PBS pH 7.4) of the membrane fraction of Expi293 cells expressing PRELP-FLAG, captured on DDDDK-tagged Protein Purification Gel overnight at 4 °C, eluted with FLAG peptide; S-Trap digestion, LC-MS/MS; compared with control-transfected cells

B1: Cadherin-related family member 1 (protein, UniProt Q96JP9 20-859)
chain: QANFAPHFFDNGVGSTNGNMALFSLPEDTPVGSHVYTLNGTDPEGDPISYHISFDPSTRSVFSVDPTFGNITLVEELDREREDEIEAIISISDGLNLVAEKVVILVTDANDEAPRFIQEPYVALVPEDIPAGSIIFKVHAVDRDTGSGGSVTYFLQNLHSPFAVDRHSGVLRLQAGATLDYERSRTHYITVVAKDGGGRLHGADVVFSATTTVTVNVEDVQDMAPVFVGTPYYGYVYEDTLPGSEVLKVVAMDGDRGKPNRILYSLVNGNDGAFEINETSGAISITQSPAQLQREVYELHVQVTEMSPAGSPAAQATVPVTIRIVDLNNHPPTFYGESGPQNRFELSMNEHPPQGEILRGLKITVNDSDQGANAKFNLQLVGPRGIFRVVPQTVLNEAQVTIIVENSAAIDFEKSKVLTFKLLAVEVNTPEKFSSTADVVIQLLDTNDNVPKFDSLYYVARIPENAPGGSSVVAVTAVDPDTGPWGEVKYSTYGTGADLFLIHPSTGLIYTQPWASLDAEATARYNFYVKAEDMEGKYSVAEVFITLLDVNDHPPQFGKSVQKKTMVLGTPVKIEAIDEDAEEPNNLVDYSITHAEPANVFDINSHTGEIWLKNSIRSLDALHNITPGRDCLWSLEVQAKDRGSPSFSTTALLKIDITDAETLSRSPMAAFLIQTKDNPMKAVGVLAGTMATVVAITVLISTATFWRNKKSNKVLPMRRVLRKRPSPAPRTIRIEWLKSKSTKAATKFMLKEKPPNENCNNNSPESSLLPRAPALPPPPSVAPSTGAAQWTVPTVSGSLTPQPTQPPPKPKTMGSPVQSTLISELKQKFEKKSVHNKAYF
binding: binds
